Results are given in words; binding and its absence hold for the method and conditions named. For some of these results: Binding calls can cover weak binding; strength is not graded here. For some of these results: Binding seen in cells or lysates may run through a third protein. For some of these results: Where a sequence is shown, tags or fusion partners need not be part of it.
B1: biotinylated PEDF (ligand, UniProt P36955 20-418)
chain: QNPASPPEEGSPDPDSTGALVEEEDPFFKVPVNKLAAAVSNFGYDLYRVRSSTSPTTNVLLSPLSVATALSALSLGAEQRTESIIHRALYYDLISSPDIHGTYKELLDTVTAPQKNLKSASRIVFEKKLRIKSSFVAPLEKSYGTRPRVLTGNPRLDLQEINNWVQAQMKGKLARSTKEIPDEISILLLGVAHFKGQWVTKFDSRKTSLEDFYLDEERTVRVPMMSDPKAVLRYGLDSDLSCKIAQLPLTGSMSIIFFLPLKVTQNLTLIEESLTSEFIHDIDRELKTVQAVLTVPKLKLSYEGEVTKSLQEMKLQSLFDSPDFSKITGKPIKLTQVEHRAGFEWNEDGAGTTPSPGLQPAHLTFPLDYHLNQPFIFVLRDTDTGALLFIGKILDPRGP
modifications: biotin (sulfo-NHS-SS-biotin; sites not stated)
B2: PLXDC1 in membranes of transfected HEK293 cells (copper phenanthroline crosslinking) (receptor, human, UniProt Q8IUK5 19-500, looked up)
chain: LSPQPGAGHDEGPGSGWAAKGTVRGWNRRARESPGHVSEPDRTQLSQDLGGGTLAMDTLPDNRTRVVEDNHSYYVSRLYGPSEPHSRELWVDVAEANRSQVKIHTILSNTHRQASRVVLSFDFPFYGHPLRQITIATGGFIFMGDVIHRMLTATQYVAPLMANFNPGYSDNSTVVYFDNGTVFVVQWDHVYLQGWEDKGSFTFQAALHHDGRIVFAYKEIPMSVPEISSSQHPVKTGLSDAFMILNPSPDVPESRRRSIFEYHRIELDPSKVTSMSAVEFTPLPTCLQHRSCDACMSSDLTFNCSWCHVLQRCSSGFDRYRQEWMDYGCAQEAEGRMCEDFQDEDHDSASPDTSFSPYDGDLTTTSSSLFIDSLTTEDDTKLNPYAGGDGLQNNLSPKTKGTPVHLGTIVGIVLAVLLVAAIILAGIYINGHPTSNAALFFIERRPHHWPAMKFRSHPDHSTYAEVEPSGHEKEGFMEAEQC
notes: human PLXDC1 with its cytoplasmic tail ending in the conserved cysteine; Detected by a Western blot for the receptor; also called the receptor; source: HEK293, transfected, in membrane preparation

How the values were obtained:
[1] = molecular target: intracellular domain deleted PLXDC2 (human); assay: binding of a biotinylated ligand to transfected cells, detected with streptavidin-alkaline phosphatase; biotinylated PEDF (20 nM) added to transfected or control HEK293 cells on a fibronectin-coated dish in HBSS, 10 mM HEPES pH 7.5, 2 mg/ml BSA, room temperature, 1 hour; washed, fixed, streptavidin-AP, NBT/BCIP; only the binder purified
[2] = molecular target: extracellular domain (ECD) deleted PLXDC2 (human); assay: as above
[3] = molecular target: extracellular domain (ECD) deleted PLXDC1 (human); assay: as above
[4] = molecular target: Rim-tagged PLXDC1 with domain D deleted (human); assay: co-IP; cotransfected cells lysed in 1% Triton X-100 in HBSS; Rim-tagged protein purified on anti-Rim antibody beads, 4 hr at 4°C; eluted at pH 2.3; copurified receptors detected by anti-HA or by antibody specific to PLXDC1 or PLXDC2

Binder | binding [1] | binding [2] | binding [3] | binding [4]
B1 | binds | no binding (tested: 20 nM) | no binding (tested: 20 nM) | 
B2 |  |  |  | no binding

— paper PMC4303762, “Identification of PLXDC1 and PLXDC2 as the transmembrane receptors for the multifunctional factor PEDF” (eLife, 2014)
